Reference: PubChem BioAssay AID485298 (National Center for Advancing Translational Sciences (NCATS), 2010)
Out of some 320,000 compounds screened, about 740 (0.23%) were called active. Inconclusive results, whose numbers are uncertain, are shown with a selection of clear calls. The call rests on the fitted dose curve; in most records, active means well fitted activation curve with a large enough effect; inconclusive means small, poorly fitted or top-dose-only effect; inactive means no such curve, though single readings can be large or run the other way. A potency beside an inconclusive call is a rough fit, not a confirmed value.

Experiment: qHTS Assay for Small Molecule Inhibitors of Mitochondrial Division or Activators of Mitochondrial Fusion; further: nearly all actives have a fitted effect of over 45% in size; on growth rescue (activation): % of control where 0% means no effect
Details: S. cerevisiae fusion-defective mutant growth rescue, CellTiterGlo 48 h; growth rescue (activation): at 46.1 µM (top of the series) unless noted
Summary of the method: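 Temperature-sensitive fusion-defective S. cerevisiae (e.g. fzo1-1, mgm1-5) were grown with compound in YPEG medium (3% ethanol, 3% glycerol) for 48 hours at 37C. Growth rescue was measured as viability by CellTiterGlo luminescence after 10 minutes at ambient.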
Potency means the concentration at half of the fitted maximal effect.

SMILES | Potency | growth rescue (activation)
O=c1c(C/C=C/c2ccccc2)c(O)ccn1Cc1ccc(Cl)cc1Cl | inconclusive: 31.6 µM [activator, single point] | –
Cc1ccnc(NC2(C(F)(F)F)N=C3SCCN3C2=O)c1 (stereo not given) | – | inactive: 0.762%
O=c1[nH]c(C(F)(F)F)nc2ccc3ccccc3c12 | inconclusive: 4.47 µM [activator, single point] | –
CC(C)(C)NC(=S)NNC(=O)c1ccncc1 | inconclusive: 8.91 µM [activator, partial curve] | –
CC(C)Sc1nc(N)nc(-c2cccs2)c1C#N | inconclusive: 31.6 µM [activator, single point] | –
CCCCCCCCn1cnc2c(N)c(C)c(C)cc21 | – | inactive: -7.3%
CCCn1c(SCC(=O)N2CCCC(C)C2)nnc1-c1ccccn1 (stereo not given) | inconclusive: 6.31 µM [activator, single point] | –
Cc1ccc(S(=O)(=O)N2CCN(C(=O)c3cc4c(s3)CCCC4)CC2)c(C)c1 | inconclusive: 28.2 µM [activator, single point] | –
O=C(OCCN1CCOCC1)C1(c2ccccc2)CCCCC1 | inconclusive: 13 µM [activator, partial curve] | –
Cc1nn(-c2ccccc2)c2nc(N)c(C#N)c(-c3ccc(F)cc3)c12 | inconclusive: 20 µM [activator, partial curve] | –
O=C(N/N=C/c1cc(Br)c(O)c(Br)c1O)c1cccnc1 | – | inactive: 7.7%
COc1ccc(NC(=O)c2ccc(COCC(F)(F)C(F)F)cc2)cc1OC | – | inactive: -0.177%
O=C(CN1CCN(c2ccccn2)CC1)N1c2ccccc2Sc2ccc(C(F)(F)F)cc21 | inconclusive: 3.16 µM [activator, partial curve] | –
CC(C)CNC(C)C(=O)Nc1ccc(S(N)(=O)=O)cc1 (stereo not given) | – | inactive: 0.518%
CC(C)(C)n1nnnc1C(c1cccs1)N(Cc1ccccc1)Cc1ccco1 (stereo not given) | inconclusive: 11.2 µM [activator, partial curve] | –
O=C(Nc1ccc(OC(F)(F)F)cc1)C1CCCCN1S(=O)(=O)c1ccccc1 (stereo not given) | inconclusive: 22.4 µM [activator, single point] | –
O=C(CSc1ccc(Cl)cc1)N1N=CCC1c1ccccc1 (stereo not given) | – | inactive: 20.7%
Nc1nc(CSc2ccc(Cl)cc2)nc(N2CCCCC2)n1 | inconclusive: 31.6 µM [activator, single point] | –
COc1ccc(NS(=O)(=O)c2cccc(NC(=O)COc3ccc(OC)cc3)c2)cc1 | inconclusive: 22.4 µM [activator, single point] | –
CN(c1ccccc1C(=O)Nc1cccc([N+](=O)[O-])c1)S(=O)(=O)c1ccccc1 | – | inactive: 11.8%

Quoted at random: 2 entries already listed, in no set order.
SMILES | Potency | growth rescue (activation)
Nc1nc(CSc2ccc(Cl)cc2)nc(N2CCCCC2)n1 | inconclusive: 31.6 µM [activator, single point] | –
CCCn1c(SCC(=O)N2CCCC(C)C2)nnc1-c1ccccn1 (stereo not given) | inconclusive: 6.31 µM [activator, single point] | –
